Here are results for 3 sequences from patent US20140255921.

Protein sequences can lack the tags named with them.

The test system of series [1] is T1, Hel308 Mok (Methanothermococcus okinawensis).
T1 sequence: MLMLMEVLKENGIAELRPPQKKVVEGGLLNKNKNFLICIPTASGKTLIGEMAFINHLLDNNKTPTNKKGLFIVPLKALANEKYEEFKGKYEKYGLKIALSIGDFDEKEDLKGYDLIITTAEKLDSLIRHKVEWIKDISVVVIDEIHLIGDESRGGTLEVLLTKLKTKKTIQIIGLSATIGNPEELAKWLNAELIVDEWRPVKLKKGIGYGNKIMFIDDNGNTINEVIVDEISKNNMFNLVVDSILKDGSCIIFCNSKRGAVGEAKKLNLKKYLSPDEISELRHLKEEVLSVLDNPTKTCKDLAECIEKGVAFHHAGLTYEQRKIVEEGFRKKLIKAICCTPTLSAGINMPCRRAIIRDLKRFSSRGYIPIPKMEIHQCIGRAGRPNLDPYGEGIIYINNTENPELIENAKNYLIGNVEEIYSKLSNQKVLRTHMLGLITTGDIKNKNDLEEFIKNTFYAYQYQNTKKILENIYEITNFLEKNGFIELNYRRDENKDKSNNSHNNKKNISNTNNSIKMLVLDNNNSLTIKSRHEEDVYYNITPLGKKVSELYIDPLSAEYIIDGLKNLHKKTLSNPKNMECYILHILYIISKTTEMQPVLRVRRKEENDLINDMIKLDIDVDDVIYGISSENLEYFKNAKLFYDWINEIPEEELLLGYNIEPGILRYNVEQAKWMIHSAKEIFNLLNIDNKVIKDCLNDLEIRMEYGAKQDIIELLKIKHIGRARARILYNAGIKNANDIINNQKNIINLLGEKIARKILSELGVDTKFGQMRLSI
The experiment in a line: activity assay. To be noted: 400 mM NaCl, 1 mM ATP, 10 mM MgCl2, purified recombinant protein, label: 5' FAM and 3' BHQ1 on SEQ 72.

Series [2] has as its target T2, Hel308 Mbu (Methanococcoides burtonii) (UniProt Q12WZ6).
T2 sequence: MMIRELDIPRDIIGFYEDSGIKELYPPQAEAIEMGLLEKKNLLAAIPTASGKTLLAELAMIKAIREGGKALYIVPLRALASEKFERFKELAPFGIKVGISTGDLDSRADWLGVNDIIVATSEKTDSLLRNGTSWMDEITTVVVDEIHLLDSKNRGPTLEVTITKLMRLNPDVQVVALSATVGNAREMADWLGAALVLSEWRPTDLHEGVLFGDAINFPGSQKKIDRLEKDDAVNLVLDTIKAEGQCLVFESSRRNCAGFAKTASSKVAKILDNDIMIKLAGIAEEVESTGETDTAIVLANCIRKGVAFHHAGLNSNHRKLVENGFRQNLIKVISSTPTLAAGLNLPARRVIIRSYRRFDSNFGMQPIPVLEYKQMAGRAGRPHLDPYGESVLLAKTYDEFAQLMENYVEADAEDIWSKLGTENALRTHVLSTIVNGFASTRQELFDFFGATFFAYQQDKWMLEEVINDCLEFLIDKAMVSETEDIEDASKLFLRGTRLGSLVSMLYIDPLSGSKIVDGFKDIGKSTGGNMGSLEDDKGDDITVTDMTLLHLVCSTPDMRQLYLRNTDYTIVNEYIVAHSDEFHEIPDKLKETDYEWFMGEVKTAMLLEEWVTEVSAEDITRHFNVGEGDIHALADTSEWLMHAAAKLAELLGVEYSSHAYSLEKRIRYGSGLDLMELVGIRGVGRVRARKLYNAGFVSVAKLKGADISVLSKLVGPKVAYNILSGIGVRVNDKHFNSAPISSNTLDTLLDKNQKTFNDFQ
The experiment in a line: activity assay. To be noted: 1 mM ATP, purified recombinant protein, protein details: ONLP3302.

Turning to “TCGCTGCTCCACAGGTCTCAGCTTGAGCAGCGAAAATAAGAACATTATGATCAGTAGGAGCACTACGACCTTTGTTCTGGTGCTCGTCCGGGCGCCCAAAGTGGAGCGAGTGCCCCC / GCACTCGCTCCACTTTGGGCGCCCGGACGAGCACCAGAACAAAGGTCGTAGTGCTCCTACTGATCATAATGTTCTTATTT / TCGCTGCTCAAGCTGAGACCTGTGGAGCAGCGA [processivity substrate]”, the “activity on this sequence” value in series [1] (processive: displaces 80 nt blocker and probe) is reported as “active”.
Regarding “CTATTCTGTTTATGTTTCTTGTTTGTTAGCCCTATTCTGTCCCCCCCCCCACCCCCCCCCACCCCCCCCCACCCCCCCCC / ACAGAATAGGGCTAACAAACAAGAAACATAAACAGAATAG [fluorescent unwinding substrate (Example 2)]”, the “activity on this sequence” value in series [2] (fluorescence unwinding assay, active from 400 mM to 2 M KCl, 5 mM MgCl2, pH 8.0, label: 5' FAM on SEQ 61, 3' BHQ1 on SEQ …) is given as “active”.
On to “TCGCTGCTCCACAGGTCTCAGCTTCCCC / TCGCTGCTCAAGCTGAGACCTGTGGAGCAGCGA [positive control processivity substrate]”, for which the “activity on this sequence” value was “active” in series [2] (active on positive control, 400 mM NaCl, 10 mM MgCl2, label: 5' FAM and 3' BHQ1 on SEQ 72, variant of processivity substrate); “active” in series [1] (active on positive control, variant of processivity substrate).
